Measurements reported in PubChem BioAssay AID1259405 (NCATS, 2018).
Test: 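Silenced genes that increase secreted GFP made by CHO cells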 (primary screen). System: Chinese hamster CHO-K1 ovary cells with stable secreted eGFP expression. Knock-down reagent: single siRNA against mouse genes, 0.8 pmol siRNA per well (2 µl of 400 nM stock). Time to read-out: 3 days. Read-out: 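Percent of the per-plate non-targeting control median for intracellular GFP per well by laser scanning cytometry and for cell viability by ATP luminescence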. Direction: GFP, % of control: higher = more GFP per well, higher productivity; viability (ATP), % of control: higher = more viable cells (more ATP). Rule for the call: 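Called active when intracellular GFP, relative to negative control, is at or above 120%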.
Shown is one part, drawn at random, of about 50,000 reagents tested. About 4,000 of all reagents (8%) count as active. 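Mouse siRNA library applied to hamster cells; one well for each siRNA.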

no.	gene knocked down	PubChem SID	GFP, % of control	viability (ATP), % of control	call
1	Vsir (V-set immunoregulatory receptor)	SID363542310	66	61	inactive
2	Vsir (V-set immunoregulatory receptor)	SID363551801	59.1	65.7	inactive
3	Vsir (V-set immunoregulatory receptor)	SID363559406	79.2	89.5	inactive
4	Zfp12 (zinc finger protein 12)	SID363555317	85.2	58.9	inactive
5	Zfp12 (zinc finger protein 12)	SID363563978	50.9	71.7	inactive
6	Zfp12 (zinc finger protein 12)	SID363587524	79.1	92.2	inactive
7	Pnkp (polynucleotide kinase 3'- phosphatase)	SID363570988	55.3	84.6	inactive
8	Cd48 (CD48 antigen)	SID363568600	69.5	60.3	inactive
9	Cd48 (CD48 antigen)	SID363575992	92	59.4	inactive
10	Cd48 (CD48 antigen)	SID363578808	108	65.1	inactive
11	Lypd8 (LY6/PLAUR domain containing 8)	SID363543409	29.4	67.2	inactive
12	Lypd8 (LY6/PLAUR domain containing 8)	SID363552902	13.9	20.7	inactive
13	Lypd8 (LY6/PLAUR domain containing 8)	SID363558750	64	77	inactive
14	Ugt2b1 (UDP glucuronosyltransferase 2 family, polypeptide B1)	SID363568709	118	108	inactive
15	Ugt2b1 (UDP glucuronosyltransferase 2 family, polypeptide B1)	SID363576101	82.7	70.9	inactive
16	Ugt2b1 (UDP glucuronosyltransferase 2 family, polypeptide B1)	SID363578917	34.4	67.8	inactive
17	Ccl28 (C-C motif chemokine ligand 28)	SID363550008	68.3	81.2	inactive
18	Ccl28 (C-C motif chemokine ligand 28)	SID363564517	29.3	49.6	inactive
19	Ccl28 (C-C motif chemokine ligand 28)	SID363588062	82.5	116	inactive

6 of these entries, reformatted.
gene knocked down,PubChem SID,"GFP, % of control","viability (ATP), % of control",call
Zfp12 (zinc finger protein 12),SID363555317,85.2,58.9,inactive
Zfp12 (zinc finger protein 12),SID363563978,50.9,71.7,inactive
Zfp12 (zinc finger protein 12),SID363587524,79.1,92.2,inactive
Pnkp (polynucleotide kinase 3'- phosphatase),SID363570988,55.3,84.6,inactive
Cd48 (CD48 antigen),SID363568600,69.5,60.3,inactive
Cd48 (CD48 antigen),SID363575992,92,59.4,inactive

Further records follow.
no.	gene knocked down	PubChem SID	GFP, % of control	viability (ATP), % of control	call
20	Gfm2 (G elongation factor, mitochondrial 2)	SID363569631	0.177	10.1	inactive
21	Gfm2 (G elongation factor, mitochondrial 2)	SID363577375	115	111	inactive
22	Gfm2 (G elongation factor, mitochondrial 2)	SID363578783	131	110	active
23	Or10v1 (olfactory receptor family 10 subfamily V member 1)	SID363544516	98.4	112	inactive
24	Or10v1 (olfactory receptor family 10 subfamily V member 1)	SID363550844	85.8	84.1	inactive
25	Or10v1 (olfactory receptor family 10 subfamily V member 1)	SID363557393	130	90.2	active
26	Cat (catalase)	SID363568885	109	114	inactive
27	Cat (catalase)	SID363576277	39	88	inactive
28	Cat (catalase)	SID363579093	67.8	71.7	inactive
29	Hsp90aa1 (heat shock protein 90, alpha (cytosolic), class A member 1)	SID363553701	43.1	50.9	inactive
30	Hsp90aa1 (heat shock protein 90, alpha (cytosolic), class A member 1)	SID363561658	106	51.2	inactive
31	Hsp90aa1 (heat shock protein 90, alpha (cytosolic), class A member 1)	SID363565396	55.4	73	inactive
32	Comp (cartilage oligomeric matrix protein)	SID363582564	93.1	115	inactive
33	Comp (cartilage oligomeric matrix protein)	SID363584324	87.1	86	inactive
34	Afp (alpha fetoprotein)	SID363570284	74.5	84	inactive
35	Afp (alpha fetoprotein)	SID363576620	69.6	75.2	inactive
36	Afp (alpha fetoprotein)	SID363579788	94.8	66.8	inactive
